{
  "source": "PubChem BioAssay AID540256",
  "about": "(National Center for Advancing Translational Sciences (NCATS), 2011)",
  "note": "In all, about 300,000 compounds went through this assay and about 3,700 (1.2%) were called active. This list was built around the results that the source calls inconclusive (neither active nor inactive); the mix of calls is not that of the screen. The call rests on the fitted dose curve; tested in HEK293 cells. Potencies of inconclusive entries are doubtful fits and often do not repeat. Potency means the concentration at half of the fitted maximal effect.",
  "data": [
    {"assay": "qHTS for Inhibitors of binding or entry into cells for Lassa Virus; further: nearly all actives have a fitted effect of over 50% in size", "settings": "Lassa virus pseudotype entry inhibition, cell reporter; series mostly up to 37.9 µM", "values": [
      {"smiles": "CC(NC(=O)c1cccc(S(=O)(=O)N2CCN(Cc3ccccc3)CC2)c1)c1ccc(Br)cc1", "note": "(stereo not drawn)", "Potency": "inconclusive: 12.6 µM [inhibitor, partial curve, poor fit]"},
      {"smiles": "Cc1ccc(F)cc1NC(=O)c1ccc(Cn2nc(N3CCN(c4ccccc4)CC3)ccc2=O)o1", "Potency": "inconclusive: 17.8 µM [inhibitor, single point]"},
      {"smiles": "CCc1ccc2[nH]c(=O)c(CN(CCCN3CCOCC3)C(=O)Nc3cccc(Cl)c3)cc2c1", "Potency": "inconclusive: 28.2 µM [inhibitor, single point]"},
      {"smiles": "O=C(Cn1c(-c2cccs2)cc2cc(F)ccc21)NCCCN1CCN(c2ccccc2F)CC1", "Potency": "inconclusive: 12.6 µM [inhibitor, single point]"},
      {"smiles": "CC(=O)CSc1nc2ccc(Nc3nc(N4CCOCC4)nc(N4CCOCC4)n3)cc2s1", "Potency": "inactive"},
      {"smiles": "Cc1nn(CCCC(=O)NCc2cccc(Cl)c2)c(=O)c2c1sc1ccccc12", "Potency": "inactive"},
      {"smiles": "COC(=O)CC1=NC(=O)CS1", "Potency": "inactive"},
      {"smiles": "CCC(C)Oc1ccccc1C1CC(=O)NC2=C1C(=O)CCC2", "note": "(stereo not drawn)", "Potency": "inconclusive: 1.41 µM [inhibitor, full curve, poor fit]"},
      {"smiles": "Cc1ccc(COC(=O)c2nn(C)c(=O)c3ccccc23)cc1", "Potency": "inconclusive: 3.16 µM [inhibitor, full curve]"},
      {"smiles": "CC(C(=O)OCc1nnc(-c2ccccc2)o1)N1C(=O)c2ccccc2C1=O", "note": "(stereo not drawn)", "Potency": "inconclusive: 35.5 µM [activator, single point]"},
      {"smiles": "C=CCn1c(=O)c2ccccc2n2c(SCC(=O)Nc3sc(C)c(CC)c3C(=O)OCC)nnc12", "Potency": "inconclusive: 12.6 µM [inhibitor, single point]"},
      {"smiles": "Cc1cc(F)ccc1S(=O)(=O)N1CCCOC1CNC(=O)C(=O)NCc1ccccn1", "note": "(stereo not drawn)", "Potency": "inactive"},
      {"smiles": "Cc1ccccc1CN1C(=O)CS/C1=N/N=C/c1ccco1", "Potency": "active: 10 µM"},
      {"smiles": "COc1c(F)c(F)c(C(=O)Nc2cccc(Cl)c2N2CCOCC2)c(F)c1F", "Potency": "inconclusive: 17.8 µM [inhibitor, single point]"},
      {"smiles": "CC1CN(S(=O)(=O)c2ccc(C(=O)N(CCCN(C)C)c3nc4cc5c(cc4s3)OCCO5)cc2)CC(C)O1", "note": "(stereo not drawn)", "Potency": "inconclusive: 5.62 µM [inhibitor, single point]"},
      {"smiles": "Cc1nc(-c2ccccc2)cs1", "Potency": "inactive"},
      {"smiles": "Cc1ccccc1CN1C(=O)c2ccccc2Sc2ccc(C(=O)OCc3ccco3)cc21", "Potency": "inactive"},
      {"smiles": "COc1cc(C)ccc1OCCCOc1ccccc1Br", "Potency": "inconclusive: 22.4 µM [inhibitor, partial curve, poor fit]"},
      {"smiles": "CCOC(=O)C1CCC(CN(Cc2c(Cl)cccc2Cl)S(=O)(=O)c2ccc(Cl)cc2)CC1", "note": "(stereo not drawn)", "Potency": "inactive"},
      {"smiles": "O=C1N=C(N2CCCCC2)S/C1=C/C1=Cc2ccccc2OC1", "Potency": "inconclusive: 0.501 µM [activator, full curve, poor fit]"},
      {"smiles": "Nc1nnc(CCCCCCCCCCc2nnc(N)s2)s1", "Potency": "inconclusive: 1.78 µM [inhibitor, full curve, poor fit]"},
      {"smiles": "Cc1ccc(NC(=O)c2ccc(=O)[nH]c2)cc1S(=O)(=O)N1CCCCCC1", "Potency": "inconclusive: 11.2 µM [inhibitor, partial curve, poor fit]"},
      {"smiles": "Cc1ccc(N2CCN(c3c(CN4CCCC4)c(=O)oc4ccccc34)CC2)c(C)c1", "Potency": "inconclusive: 4.47 µM [inhibitor, single point]"},
      {"smiles": "O=C(NN=Cc1cc([N+](=O)[O-])ccc1O)c1cccc2ccccc12", "Potency": "active: 7.08 µM"},
      {"smiles": "COc1cccc(CNc2ccc(N3CCCCC3)cc2)c1OC", "Potency": "inconclusive: 22.4 µM [inhibitor, single point]"},
      {"smiles": "COC(=O)CN(C)C(=O)c1ccc(OC)c(OC2CCN(C(C)C)CC2)c1", "Potency": "inactive"},
      {"smiles": "O=c1c2cc(Br)ccc2nc(-c2cccc(C(F)(F)F)c2)n1O", "Potency": "inconclusive: 35.5 µM [inhibitor, single point]"},
      {"smiles": "CC(C)(C)C(=O)c1cn(CC(=O)O)c2ccccc12", "Potency": "inconclusive: 18.3 µM [activator, single point]"},
      {"smiles": "COc1ccc(-n2nc(C(=O)NCCc3ccc(OC)c(OC)c3)c3c4ccccc4n(C)c3c2=O)cc1Cl", "Potency": "inconclusive: 4.47 µM [inhibitor, single point]"},
      {"smiles": "Cn1c(SCc2ccccc2)nnc1-c1ccc2c(c1)OCO2", "Potency": "inconclusive: 2.82 µM [activator, partial curve, poor fit]"},
      {"smiles": "CC(C)(C)N1CC(c2nc3ccccc3n2CCOc2ccccc2)CC1=O", "note": "(stereo not drawn)", "Potency": "inactive"},
      {"smiles": "CCOc1ccccc1CNC(=O)c1cnc2c(-c3ccc(OCC)c(OCC)c3)c(C)nn2c1C", "Potency": "inactive"},
      {"smiles": "COc1ccc2[nH]c(=O)c(C3c4cc(OC)c(OC)cc4CCN3C(=O)c3ccco3)cc2c1", "note": "(stereo not drawn)", "Potency": "inconclusive: 3.98 µM [inhibitor, partial curve, poor fit]"},
      {"smiles": "Cc1ccccc1CN(c1ccc(C(=O)Nc2cccnc2)cc1)S(C)(=O)=O", "Potency": "inactive"},
      {"smiles": "COC(=O)CCCNC(=O)CN1CC(c2ccccc2)CC1=O", "note": "(stereo not drawn)", "Potency": "inactive"},
      {"smiles": "O=C(NCCN1CCCCC1)Nc1ccc(Cl)cc1", "Potency": "inactive"},
      {"smiles": "O=C1C(c2ccc(F)cc2)N(Cc2ccc3c(c2)OCO3)C(=O)CN1C1CCCCCC1", "note": "(stereo not drawn)", "Potency": "inconclusive: 25.9 µM [inhibitor, partial curve, poor fit]"},
      {"smiles": "c1ccc(CCc2nn3c(C4COc5ccccc5O4)nnc3s2)cc1", "note": "(stereo not drawn)", "Potency": "inactive"},
      {"smiles": "Cc1ccc(-n2cc3ccc([N+](=O)[O-])cc3n2)cc1", "Potency": "inconclusive: 0.82 µM [activator, partial curve, poor fit]"},
      {"smiles": "COc1cc(NC(=O)Nc2nnc(N3CCCCCC3)s2)cc(OC)c1", "Potency": "inactive"},
      {"smiles": "Cc1c(C(=O)Nc2ccc(S(=O)(=O)N(C)C3CCN(C)CC3)cc2)oc2c(Cl)cccc12", "Potency": "inconclusive: 3.16 µM [inhibitor, partial curve, poor fit]"},
      {"smiles": "CC(C)CN(C(=O)COC(=O)CN1C(=O)c2ccccc2C1=O)c1c(N)n(Cc2ccccc2)c(=O)[nH]c1=O", "Potency": "inactive"},
      {"smiles": "O=C(N/N=C/c1ccc(Cl)cc1Cl)c1n[nH]c2c1CCCC2", "Potency": "inconclusive: 2 µM [inhibitor, partial curve, poor fit]"},
      {"smiles": "O=c1cc(C(F)(F)F)[nH]c2c(C(F)(F)F)cccc12", "Potency": "inconclusive: 25.9 µM [inhibitor, single point]"},
      {"smiles": "CN(C)S(=O)(=O)c1ccc2c(c1)N(CC(=O)N1CCN(c3cccc(Cl)c3)CC1)CCS2", "Potency": "inactive"},
      {"smiles": "Cc1c(Cl)cccc1NC(=S)NNc1ncc(C(F)(F)F)cc1Cl", "Potency": "inconclusive: 18.3 µM [inhibitor, single point]"},
      {"smiles": "O=P(C1=C(N2CCOCC2)/C(=C\\c2ccccc2)CC1)(N1CCOCC1)N1CCOCC1", "Potency": "inconclusive: 0.58 µM [inhibitor, full curve, poor fit]"},
      {"smiles": "COc1cc(OC)c(N(C)C(=O)C2CCCN(c3ncnc4c3nc3n4CCCCC3)C2)cc1Cl", "note": "(stereo not drawn)", "Potency": "inconclusive: 7.94 µM [inhibitor, partial curve, poor fit]"},
      {"smiles": "COc1ccc(-c2n[nH]c(C)c2-c2cc(OC)ccc2O)cc1", "Potency": "inactive"},
      {"smiles": "S=c1[nH]nc(-c2ccc3ccccc3n2)n1Cc1ccccc1", "Potency": "inactive"},
      {"smiles": "Cn1c(=O)c(=O)n(C)c2cc(S(=O)(=O)CCC(=O)Nc3cccc(C(F)(F)F)c3)ccc21", "Potency": "inconclusive: 22.4 µM [inhibitor, single point]"},
      {"smiles": "CCOC(=O)c1ccc(NS(=O)(=O)c2c(C)[nH]c(C)c2C(=O)N2CCCCC2)cc1", "Potency": "inconclusive: 8.91 µM [inhibitor, partial curve]"},
      {"smiles": "O=C(/C(=C/O)N=Nc1ccc(Cl)cc1)c1ccncc1", "Potency": "inconclusive: 25.1 µM [inhibitor, single point]"},
      {"smiles": "O=C(CCNC(=O)c1ccc(Br)cc1)NCc1ccncc1", "Potency": "inconclusive: 1.58 µM [activator, partial curve, poor fit]"},
      {"smiles": "COc1ccc(Cn2c(SCC(=O)Nc3ccc(OC)cc3)nc3ccccc32)cc1", "Potency": "inconclusive: 2.82 µM [activator, full curve, poor fit]"},
      {"smiles": "COc1cc(/C=C/c2nc3cc(Cl)ccc3c(=O)n2-c2cccc(C(F)(F)F)c2)cc(OC)c1OC", "Potency": "inactive"},
      {"smiles": "Cc1cccc(N2CCN(C(=O)c3ccncc3)CC2)c1C", "Potency": "inconclusive: 16.4 µM [inhibitor, partial curve, poor fit]"},
      {"smiles": "CCCCCCN1CCN(C2CN(Cc3ccc(C)cc3)S(=O)(=O)C2)CC1", "note": "(stereo not drawn)", "Potency": "active: 6.28 µM"},
      {"smiles": "Nc1ccc(S(=O)(=O)N2CCC(Cc3ccccc3)CC2)cc1", "Potency": "inconclusive: 35.5 µM [inhibitor, single point]"},
      {"smiles": "CC(C)(C)c1ccc(/C=C/C(=O)Nc2nncs2)cc1", "Potency": "inconclusive: 1.03 µM [activator, partial curve, poor fit]"},
      {"smiles": "CCc1ccc(Oc2c(C(F)(F)F)oc3c(CN4CCN(CC)CC4)c(O)ccc3c2=O)cc1", "Potency": "inactive"},
      {"smiles": "O=C(Nc1cc(F)ccc1F)c1ccc(-n2cncn2)c([N+](=O)[O-])c1", "Potency": "inactive"},
      {"smiles": "CC(C)CNCC1OCc2ccccc2CO1", "Potency": "inactive"},
      {"smiles": "CCOc1ccccc1C(=O)Nc1cc(Cl)ccc1O", "Potency": "inactive"},
      {"smiles": "CCN(CC)S(=O)(=O)c1ccc(Nc2nc3ccccc3n3nnnc23)cc1", "Potency": "inconclusive: 8.91 µM [inhibitor, partial curve]"},
      {"smiles": "N#C/C(=C\\c1cc([N+](=O)[O-])c(N2CCOCC2)cc1N1CCOCC1)c1nc2ccccc2[nH]1", "Potency": "inconclusive: 12.6 µM [inhibitor, partial curve]"},
      {"smiles": "COc1ccc(-c2nc(N3CCN(C)CC3)sc2-c2ccc(OC)cc2)cc1", "Potency": "inconclusive: 11.2 µM [inhibitor, partial curve, poor fit]"},
      {"smiles": "COC(=O)Cc1c(C)c2ccc(OCC(=O)N3CCC(C)CC3)c(C)c2oc1=O", "Potency": "inactive"}
    ]}
  ]
}
